From patent US11589588B2, “Methods of identification and use of nematicide compounds” (UNIVERSITY OF NEW HAMPSHIRE, priority 2013, dated 2023)
Some of these results come from one statement about several compounds together. Some compounds share one range, which may span the group rather than tell each member.

Test system: C. elegans
Test: Motility of dauer state C. elegans exposed to PDE inhibitors
Format: in vivo
Details: nematodes became uncoordinated or immotile
Description: The dauer state is morphologically similar to the infective states in juvenile phytoparasitic nematodes.
For this study, worms were contacted with drugs and scored for motility at various time points after the drug treatment to determine how quick the motility defect occurred. Nematodes were scored at 0, 1, 2, 4, 8, and 24 hours after addition of the treatment. Concentrations were 4.9 μM cilostazol, 2.5 μM Rolipram, and 6.6 μM papaverine. […] The time is shown in hours after contact was initiated and the effect was determined by assessing the fraction of contacted works that were motile, relative to control worm motility (i.e., worms not contacted with the tested drug). Cilostazol, rolipram and papaverine were tested. […] The time is shown in hours after contact and the effect was determined by assessing the fraction of contacted works that were motile, relative to control worm motility (controls were worms not contacted with tested drug).

Row | SMILES | reduction of normal nematode motility
1 | O=C1CCc2cc(OCCCCc3nnnn3C3CCCCC3)ccc2N1 [cilostazol] | 70-80%
2 | COc1ccc(Cc2nccc3cc(OC)c(OC)cc23)cc1OC [papaverine] | 70-80%
3 | Cn1cc(-c2ccncc2)c(-c2ccc(OCc3ccc4ccccc4n3)cc2)n1 [MP10] | 70-80%
4 | COc1ccc(C2CNC(=O)C2)cc1OC1CCCC1 (centres unmarked) [rolipram] | 70-80%
5 | Cc1[nH]c(=O)c(C#N)cc1-c1ccncc1 [milrinone] | 70-80%
